# Laboratory results from paper PMC6925144, “A prospective compound screening contest identified broader inhibitors for Sirtuin 1” (Scientific Reports, 2019).
# Amino acid sequences for entries named in this document (tags omitted). Residues count along the entry.
# UniProt Q96EB6, 2-747 limits assumed: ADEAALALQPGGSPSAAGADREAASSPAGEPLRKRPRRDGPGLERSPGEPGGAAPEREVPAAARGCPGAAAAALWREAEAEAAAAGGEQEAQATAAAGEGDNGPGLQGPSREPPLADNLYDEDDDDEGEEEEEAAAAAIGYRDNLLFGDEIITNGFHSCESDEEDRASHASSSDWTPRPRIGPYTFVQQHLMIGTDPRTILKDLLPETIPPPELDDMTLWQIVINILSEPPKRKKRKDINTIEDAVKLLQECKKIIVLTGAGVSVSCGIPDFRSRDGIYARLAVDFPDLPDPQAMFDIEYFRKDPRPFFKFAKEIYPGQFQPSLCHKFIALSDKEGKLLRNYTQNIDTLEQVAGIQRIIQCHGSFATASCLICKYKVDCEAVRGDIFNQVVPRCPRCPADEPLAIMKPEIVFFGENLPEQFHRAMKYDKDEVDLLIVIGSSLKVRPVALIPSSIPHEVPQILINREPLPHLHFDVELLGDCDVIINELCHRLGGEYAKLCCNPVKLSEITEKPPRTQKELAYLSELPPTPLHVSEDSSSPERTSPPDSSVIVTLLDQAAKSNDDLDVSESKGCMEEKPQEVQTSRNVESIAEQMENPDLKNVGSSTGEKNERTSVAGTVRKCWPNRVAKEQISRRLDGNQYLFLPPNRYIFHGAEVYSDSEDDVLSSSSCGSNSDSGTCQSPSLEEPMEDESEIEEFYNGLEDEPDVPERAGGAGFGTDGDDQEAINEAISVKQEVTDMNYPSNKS
# Over roughly 3,200 compounds, “TSA(without NAD+) / Primary screening (TSA) / delta Tm (K)” has its median near -0.07; the highest 2% begin near 0.37. The list shows a part of the results.
# Molecular target: NAD-dependent deacetylase Sirtuin 1 (human, UniProt Q96EB6)
# Test: primary screen, delta tm
# Parameters: single well (n = 1)
# Details: 10 µM
# Method in brief: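 Thermal shift of Sirtuin 1 measured without NAD+, compound at 10 µM (n = 1); value is ΔTm, with hits defined as ΔTm > 0.45 K or < −1.5 K. Hits retested at 5, 10, 20 µM (n = 4) and counterscreened on bovine carbonic anhydrase and ABL1 SH2 domain.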
row,SMILES,TSA(without NAD+) / Primary screening (TSA) / delta Tm (K)
1,O=C(CN1CCN(C(=O)c2ccc(-c3cc(Cl)ccc3Cl)o2)CC1)Nc1ccccc1Cl,-0.14
2,Cc1ccc(S(=O)(=O)NCC(=O)NCC(=O)OCC(=O)c2ccc(C3CCCCC3)cc2)cc1C,0.19
3,CCCOc1ccc(C(=O)C2=C(O)C(=O)N(CCCN3CCOCC3)C2c2ccco2)cc1 (stereo not drawn),0.12
4,Cc1ccc(NC(=O)c2cccc(S(=O)(=O)N(C)c3ccc(C)cc3)c2)cc1,0.45
5,C=CCOc1ccc(C2C(C(=O)c3cccs3)=C(O)C(=O)N2CCCN2CCOCC2)cc1 (stereo not drawn),0.02
6,COCc1noc(CN2CCCCC2c2cc3ccccc3[nH]2)n1 (stereo not drawn),-0.24
7,O=C(CCc1cccnc1)Nc1ccccc1N1CCc2ccccc2C1,-0.31
8,N#CC1=C(N)Oc2c(ccc3ccccc23)C1c1ccccc1F (stereo not drawn),-0.18
9,CC(C)Oc1ccc(C(=O)C2=C(O)C(=O)N(CCCN3CCOCC3)C2c2ccccc2F)cc1 (stereo not drawn),-0.23
10,CCOCCn1ccc2cc(OC)c(F)cc2c1=O,-0.33
11,CCOc1ccc(C2C(C(=O)c3ccco3)=C(O)C(=O)N2CCCN2CCOCC2)cc1OCC (stereo not drawn),-0.08
12,Cc1noc(C)c1CC(=O)Nc1ccccc1-c1nc(C(C)C)n[nH]1,-0.21
13,NCCN1CCNCC1,-0.24
14,CCC(=O)Nc1cccc(C(=O)NNC(=O)c2nc(-c3ccccc3)n(-c3ccccc3)n2)c1,-0.02
15,NC(=O)c1ccc(OCC(=O)NCC2CN(Cc3ccccc3)CCO2)cc1 (stereo not drawn),-0.02
16,C=CCOc1ccc(C(=O)C2=C(O)C(=O)N(CCN3CCOCC3)C2c2cccs2)cc1 (stereo not drawn),-0.24
17,O=C(CSc1nnc(-c2ccccc2Br)[nH]1)NCCN1C(=O)CSC1=O,0.09
18,COc1ccc(-c2noc(CCC(=O)OCc3cc(=O)oc4cc(NC(C)=O)ccc34)n2)cc1,0.15
19,COc1ccc(NC(=O)COc2ccc(C(=O)NCC34CC5CC(CC(C5)C3)C4)cc2OC)cc1,-0.34
20,Nn1c(S)nnc1COc1ccc(F)cc1,-0.12
21,O=C1NCCN(C(=O)c2ccc[nH]2)C1c1ccc(C(F)(F)F)cc1 (stereo not drawn),-0.28
22,Fc1ccc(-c2csc3ncnc(N4CCN(c5nccs5)CC4)c23)cc1,-0.14
23,NCC(=O)OCc1ccccc1,-0.12
24,CC(C)(O)Cn1cnc2c(N3CCOCC3)ncnc21,0.02

row,SMILES,TSA(without NAD+) / Primary screening (TSA) / delta Tm (K)
1,Cc1ccc(NC(=O)COC(=O)C23CC4CC(C2)CC(c2ccccc2)(C4)C3)cc1S(=O)(=O)N(C)C,0.12
2,Sc1ncc[nH]1,0.03
3,Cc1nc2sccn2c1CNCc1ccccc1,-0.01
4,Cc1cc(=O)oc2cc(NC(=O)c3cccc(S(=O)(=O)N(C)c4ccccc4)c3)ccc12,-0.17
5,CC(=O)N1N=C(c2ccccc2)CC1c1ccc(Br)cc1 (stereo not drawn),-0.02
6,COC(=O)c1ccc(C2NC(=O)NC3=C2C(=O)N(CCO)C3)cc1 (stereo not drawn),0.07
7,CCCCc1ccc(NC(=O)c2cccc(S(=O)(=O)N(C)c3cccc(Cl)c3)c2)cc1,0.58
8,CC(C)(C)NCCN,-0.05
9,Cc1nn(C)c2ncc(S(=O)(=O)N(C)c3cccc(C#N)c3)cc12,-0.12
10,Nc1cc(C(F)(F)F)ccc1O,-0.88
11,CN(c1ccc(Oc2ccccc2)cc1)S(=O)(=O)c1cc(C(N)=O)n(C)c1,-0.22
12,Cc1nc(N2CCN(C(=O)CCc3ccccc3)CC2)c2cc[nH]c2n1,-0.05
13,CCOc1cccc(C=C2C(=O)NC(=S)NC2=O)c1,0.15
14,CC(CNS(=O)(=O)c1ccc(CCC(=O)O)cc1)c1nc2ccccc2n1C(F)F (stereo not drawn),-0.03
15,CCC(C)c1ccc(C(Nc2ccc3nnnn3n2)C(C)C)cc1 (stereo not drawn),0.16
16,NC(=O)C1CN(c2nc(C3CC3)nc3sc4c(c23)CCCC4)CCO1 (stereo not drawn),-0.13
17,CC(C)CNc1ncnc2c1oc1ccccc12,0.02
18,CCCCn1nnnc1COC(=O)c1cccc(S(=O)(=O)N(C)c2cccc(Cl)c2)c1,0.03
19,CCN(CC)c1ncnc2c1oc1ccccc12,0.17
20,O=C(O)c1ccc(S(=O)(=O)N2CCC(c3ccccc3)C2)c(F)c1 (stereo not drawn),-0.17
21,COc1cc(CN(C)C(=O)Cn2cnc3ccccc3c2=O)ccc1OCc1ccccc1,0.36
22,CCC(=O)NC(C)C(=O)NCC1CCCO1 (stereo not drawn),-0.22
23,NS(=O)(=O)Cc1cccc(Cl)c1,0.06
24,NC(=O)C1CCN(C(=O)c2ccc(-c3ccc(Cl)cc3)s2)C1 (stereo not drawn),-0.05

row,SMILES,TSA(without NAD+) / Primary screening (TSA) / delta Tm (K)
1,Cc1ccc([N+](=O)[O-])cc1S(=O)(=O)Nc1ccc(C(=O)OC(C)C(=O)NC23CC4CC(CC(C4)C2)C3)cc1 (stereo not drawn),0.86
2,CCC(=O)N(c1nn(CN(C)Cc2c(C)nn(C3CCS(=O)(=O)C3)c2C)c(=S)s1)C1CC1 (stereo not drawn),-0.07
3,O=C(Cc1c(Cl)cccc1Cl)Nc1ccc(N2CCN(Cc3ccccc3)CC2)cc1,0.08
4,CCN(CC)CCCNC(=O)Nc1ccc(S(N)(=O)=O)cc1,-0.23
5,CNC(=O)CN(Cc1ccccc1)S(=O)(=O)c1ccc(Cl)cc1,0.27
6,Cc1cccc(NS(=O)(=O)c2cccc(C(=O)OCC(=O)NC(=O)NC34CC5CC(CC(C5)C3)C4)c2)c1,0.27
7,Cc1nn(-c2ccccc2)c(C)c1CCC(=O)Nc1c(C)n(C)n(-c2ccccc2)c1=O,0.12
8,CC(C)n1cnnc1C1CCN(c2ncc(C(N)=O)cc2Cl)CC1,-0.22
9,COCC(N)CN (stereo not drawn),-0.18
10,O=C1CSc2ccc(C(=O)Nc3ccc(N4CCN(Cc5ccccc5)CC4)cc3)cc2N1,-0.24
11,O=C(NCc1cccnc1Oc1cccc(F)c1)N1CCOc2ccccc2C1,-0.15
12,COc1ccc2cc(CNC(=O)C3=COCCO3)ccc2c1,-0.02
13,CCOC(=O)c1c(C)[nH]c(C(=O)CN(C)Cc2ccc(C)cc2)c1C,-0.08
14,CCCCc1ccc(N2CC(C(=O)N3CCN(c4cnccn4)CC3)CC2=O)cc1 (stereo not drawn),-0.04
15,COCCNc1ncnc2ccsc12,0.02
16,CC(C)(C)OC(=O)NCCOc1cccc(NS(=O)(=O)c2ccc3c4c(cccc24)C(=O)N3)c1,0.06
17,Cc1nn(Cc2ccccc2Cl)c(C)c1-c1nc(-c2ccccc2)c(-c2ccccc2)[nH]1,-0.08
18,CC(O)CNCc1cn(-c2ccccc2)nc1-c1cc2ccccc2o1 (stereo not drawn),-0.01
19,O=C(c1nn(Cc2ccccc2)c(=O)c2ccccc12)N1CCN(Cc2ccncc2)CC1,-0.04
20,COCCNCCCN,-0.02
21,Cc1nc(N2CCN(CCN3CCCC3)CC2)c2c(-c3ccccc3)csc2n1,-0.05
22,FC(F)(F)c1cc(N2CCN(Cc3nc4ccccc4[nH]3)CC2)n2ncnc2n1,-0.13
23,Cc1ccc2[nH]c(C)c(CC(=O)OCC(=O)N3CCC(C(N)=O)CC3)c2c1,-0.12
24,O=C(Nc1cccc(S(=O)(=O)N2CCOCC2)c1)C1c2ccccc2Oc2ccccc21,-0.13

# Gathered by group: the compounds so far with an aryl methoxy group
row,SMILES,TSA(without NAD+) / Primary screening (TSA) / delta Tm (K)
10,CCOCCn1ccc2cc(OC)c(F)cc2c1=O,-0.33
18,COc1ccc(-c2noc(CCC(=O)OCc3cc(=O)oc4cc(NC(C)=O)ccc34)n2)cc1,0.15
19,COc1ccc(NC(=O)COc2ccc(C(=O)NCC34CC5CC(CC(C5)C3)C4)cc2OC)cc1,-0.34
21,COc1cc(CN(C)C(=O)Cn2cnc3ccccc3c2=O)ccc1OCc1ccccc1,0.36
12,COc1ccc2cc(CNC(=O)C3=COCCO3)ccc2c1,-0.02

# Next part:

row,SMILES,TSA(without NAD+) / Primary screening (TSA) / delta Tm (K)
1,Cc1c(C(=O)CSc2nnc(NCc3ccco3)s2)oc2ccccc12,0.02
2,O=C1NC(=S)NC(=O)C1=Cc1ccc(-c2ccccc2)s1,-0.12
3,CN(C)C(=O)c1ccccc1NC(=O)NC(C)(C)c1ccc(F)cc1,-0.27
4,Cc1cc(/N=C/c2c(O)ccc3ccccc23)ccc1I,-0.14
5,COc1cc(CC(=O)N2CC(C(N)=O)c3ccccc32)ccc1C (stereo not drawn),-0.01
6,COc1ccccc1C1C(C(=O)c2ccc3c(c2)OCCO3)=C(O)C(=O)N1CCCN1CCOCC1 (stereo not drawn),-0.12
7,COc1cc(CN(C)C(=O)Cc2c(F)cccc2Cl)ccc1OCc1ccccc1,-0.05
8,NC(=O)c1cc(NC(=O)c2ccc(-c3ccccc3F)o2)ccc1Cl,0.06
9,CC(NC(=O)CNC(=O)CNC(=O)c1cccs1)c1ccccn1 (stereo not drawn),-0.23
10,COc1cc(C(C)=O)ccc1COc1ccc(C(=O)OCC(N)=O)cc1OC,0.02
11,N#CCCn1cc(C(=O)CN2CCN(C(c3ccc(F)cc3)c3ccc(F)cc3)CC2)c2ccccc21,0.17
12,NS(=O)(=O)c1ccc(Br)c(C(=O)Nc2ccc(NC(=O)CN3CCOCC3)cc2)c1,0.07
13,CN(Cc1ccc(C(N)=O)cc1)S(=O)(=O)c1ccc2c(c1)CCC2,0.12
14,CCOc1ccc(C2C(C(=O)c3cc4ccccc4o3)=C(O)C(=O)N2CCCN2CCOCC2)cc1 (stereo not drawn),-0.02
15,Cc1ccc2c(Cn3nnc(-c4ccccc4)n3)cc(=O)oc2c1C,-0.17
16,NCc1nc2cc(C(=O)O)ccc2[nH]1,0.16
17,CCc1nc2ccccc2n1CC(=O)N1CC(C)OCC1C (stereo not drawn),0.12
18,CCCOc1ccc(C2C(C(=O)c3sc(C)nc3C)=C(O)C(=O)N2CCCN2CCOCC2)cc1 (stereo not drawn),-0.18
19,CCOc1ccc(C(=O)C2=C(O)C(=O)N(CCN3CCOCC3)C2c2ccc(OCC)cc2)cc1 (stereo not drawn),-0.31
20,CC(CN)CCO (stereo not drawn),-0.23
21,CCC(C)C(O)CN (stereo not drawn),-0.08
